{"source": "patent US9345764B2", "about": "“Moesin modulators and uses thereof” (SHANGHAI KEXIN BIOTECH CO., LTD., priority 2010, dated 2016)", "tested_on": "HPMEC cells", "assay": "Cytoskeleton morphology under microscope", "format": "cell-based, human", "conditions": "agent alone", "data": [{"substance": "TNF-alpha", "values": [{"measurement": "nuclei", "result": "No apparent change in nuclei"}, {"measurement": "cytoskeleton structure", "setting": "up to 36 hours incubation", "result": "no apparent change in structure, until after 36 hrs, when partial disruption of F-actin structure was observed"}]}]}
